Structures are written as SMILES. Several values for one entry are separate records, joined by “and”; a condition that tells them apart may be missing. Identical values can stand only once. The list shows a part of the results. These are further read-outs of the screen, such as a control signal, another cell line or another target. No call is given for them. Compounds called inactive in the main read-out are mostly missing here. Words in brackets tell the shape of the fitted curve; partial curves, single points and poor fits give uncertain potencies.

For orientation: AC50 means the midpoint of the concentration-response curve, whichever way the signal moves.

This assay can be described thus: qHTS Assay for Lipid Storage Modulators in Drosophila S3 Cells.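 On cell number change: cells counted by Cell Tracker Red CMTPX staining in the red channel.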 Conditions: BODIPY lipid droplet fluorescence, 18-24 h; for cell number change: measured here: cell count max response, cells fed with added oleic acid. Put shortly: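 Drosophila S3 cells loaded with oleic acid (400 uM, as added) and compounds at several concentrations; lipid droplets imaged by 488-nm laser-scanning cytometry, 500–530 nm intensity and object ratio to cell channel. Percent activity normalized to 20 uM Triacsin C.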
On the technique in general: In qHTS, concentration-response curves come from the screen itself.

The mark [1] stands for this setting: measured here: lipid fluorescence (Fed channel) AC50, cells fed with added oleic acid.
Setting [2] is: measured here: cell number channel AC50, cells fed with added oleic acid.

`Cc1ccn2c(=O)nc(SCC(=O)N3CCC(Cc4ccccc4)CC3)nc2c1`: the cell number change was -3.06%. The AC50 under setting [1] is 0.651 µM [falling, full curve].
For `OCC1(CCc2ccccc2)CCN(Cc2ccc(OC(F)F)cc2)CC1`, the cell number change amounted to 17.5%. Also, the AC50 under setting [1] is 0.259 µM [rising, full curve, poor fit].
For the compound `CCOC(=O)c1c(C2CC2)csc1NC(=O)COC(=O)c1cc(OC)c(OC)cc1[N+](=O)[O-]`, the cell number change was -33.5%. The AC50 under setting [2] was 2.06 µM [falling, full curve]. Further, the AC50 under setting [1] was 2.06 µM [falling, full curve].
On to `CSc1ccccc1NC(=O)C1CCCO1` (stereo not given), for which the cell number change was -3.95%. Under setting [1], the AC50 was 4.61 µM [falling, full curve, poor fit].
As to `Cc1cc(NC(=O)C2CCCCC2)n(-c2nc3ccccc3[nH]2)n1`, the cell number change was -9.45%. Further, the AC50 under setting [2] is 2.59 µM [rising, partial curve, poor fit]. The half-maximal activity concentration (AC50) under setting [1] is 5.8 µM [rising, partial curve, poor fit].
Turning to `O=C(COc1ccccc1Cl)Nc1ccc(C(=O)N2CCCCC2)cc1`, the cell number change is 3.16%. Further, the AC50 under setting [1] was 0.58 µM [rising, single point].
In the case of `CCNc1nc2ccccc2[nH]1`, the cell number change was -24.8%. The AC50 under setting [1] was 0.146 µM [falling, full curve].
Take `Cc1ccc(S(=O)(=O)N2CCN(C(=O)COC(=O)c3cccc(Cl)c3)CC2)c(C)c1`: the cell number change was 2.72%. Also, under setting [1], the AC50 is 29.1 µM [falling, single point].
Regarding `CCCNC(=O)c1cc(-c2ccc(OC)cc2)on1`, the cell number change stood at 46.4%. For the same compound, the AC50 under setting [2] was 8.2 µM [rising, partial curve].
In the case of `COc1ccc(OCCOCCOc2ccc(C)cc2[N+](=O)[O-])cc1`, the cell number change amounted to 23.9%. Moreover, under setting [1], the AC50 is 5.17 µM [rising, partial curve].
Take `COc1ccccc1NC(=O)CCc1nnc2ccc(N3CCN(C)CC3)nn12`: the cell number change is -181%. For the same compound, the AC50 under setting [2] is 25.9 µM [falling, partial curve].
As for `Fc1cccc(Cl)c1Cn1nnc2c(-n3ccnc3)ncnc21`, the cell number change is -10.5%. In addition, the half-maximal activity concentration (AC50) under setting [1] was 0.326 µM [rising, partial curve, poor fit].
Take `O=C(N/N=C/c1ccc[nH]1)c1ccccc1OCc1ccccc1Cl`: the cell number change is 73.3%. Further, the AC50 under setting [2] was 1.16 µM [rising, full curve]. In addition, the AC50 under setting [1] is 1.84 µM [rising, partial curve].
Turning to `NCC(c1ccco1)c1c[nH]c2ccccc12` (stereo not given), the cell number change is 3.86%.
Take `Cc1nnc(SCC(=O)NCc2ccc(Cl)cc2)[nH]c1=O`: the cell number change stood at 5.86%. The concentration at half-maximal activity (AC50) under setting [1] was 1.84 µM [falling, full curve, poor fit].
`O=C1NNC(=O)C2C3C=CC(C4CC34)C12` (stereo not given): the cell number change was -2.86%. Moreover, the AC50 under setting [2] was 0.00411 µM [falling, full curve, poor fit].
As to `Oc1ccc(Br)cc1-c1cc(-c2ccccc2F)[nH]n1`, the cell number change is -13.2%.
On to `CCOc1ccc(NC(=O)c2ccc(NC(=S)NC3CC3)cc2)cc1`, for which the cell number change worked out at 19.4%. For the same compound, the AC50 under setting [1] was 0.58 µM [rising, single point].
For the compound `O=C(O)c1nc(Cl)c(Cl)c(N/N=C/c2ccccc2C(F)(F)F)c1Cl`, the cell number change came out at 23%.
Consider `CCC(C)(C)NC(=O)C(c1ccc(C)cc1)N(Cc1ccco1)C(=O)Cn1nnc2ccccc21` (stereo not given), for which the cell number change is -27.7%. Further, the AC50 under setting [1] is 10.3 µM [falling, partial curve].
Regarding `NC(=O)c1ccccc1OCC(=O)NS(=O)(=O)c1ccc(Cl)cc1`, the cell number change is -36.9%. Moreover, under setting [2], the AC50 is 16.4 µM [falling, partial curve, poor fit]. Also, the half-maximal activity concentration (AC50) under setting [1] was 0.231 µM [falling, full curve].
In the case of `O=C(Nc1cccc(-c2cccc(Cl)c2)c1)C1CCN(Cc2ccccn2)CC1`, the cell number change was -24.2%. The AC50 under setting [1] was 29.1 µM [falling, single point].
Regarding `CCCCNC(=O)c1c[nH]c2ccc(S(=O)(=O)Nc3ccc(OCC)cc3)cc2c1=O`, the cell number change is -47.9%. The AC50 under setting [2] was 25.9 µM [falling, single point]. Also, the half-maximal activity concentration (AC50) under setting [1] is 18.4 µM [falling, single point].
For `Cc1cc(NC(=O)c2cccc(Oc3ccccc3)c2)n[nH]1`, the cell number change was determined as 22.4%. For the same compound, the AC50 under setting [1] is 7.31 µM [rising, partial curve, poor fit].
`COC(=O)c1nn(-c2ccccc2)c(Cl)c1/C=N/OCc1ccc(C)cc1`: the cell number change is -27.2%. For the same compound, under setting [2], the AC50 was 0.184 µM [falling, full curve, poor fit].
Take `CCN(c1ccc(Cl)cc1)S(=O)(=O)c1nnc(NC(=O)C(C)C)s1`: the cell number change stood at 1.42%.
On to `CN(Cc1ccco1)c1ncnc2ccc(-c3ccc4c(c3)OCO4)cc12`, for which the cell number change was -10.7% and 19%. Also, the AC50 under setting [2] is 0.82 µM [falling, full curve, poor fit]. The concentration at half-maximal activity (AC50) under setting [1] was 820 nM [falling, single point] and 29.1 µM [rising, single point].
In the case of `O=C(CSc1cn(CCNC(=O)c2ccccc2)c2ccccc12)NCC1CCCO1` (stereo not given), the cell number change is -54.5%. Further, under setting [2], the AC50 was 23.1 µM [falling, partial curve]. The half-maximal activity concentration (AC50) under setting [1] is 29.1 µM [falling, single point].
Regarding `COc1cc(NC(=O)CCn2c(=S)oc3ccccc32)cc(OC)c1OC`, the cell number change was 0.308%. For the same compound, the AC50 under setting [1] is 0.0058 µM [falling, full curve, poor fit].
As to `Cc1ccccc1Nc1nc(-c2sc(NC(=O)c3ccco3)nc2C)cs1`, the AC50 under setting [2] was 2.59 µM [rising, partial curve] and the AC50 under setting [1] is 0.0651 µM [rising, full curve, poor fit].
Take `Cc1ccc(C2CC(=O)c3cnc(N4CC(C)CC(C)C4)nc3C2)cc1` (stereo not given): the cell number change is -30.2%. Also, the AC50 under setting [2] was 29.1 µM [falling, single point]. The AC50 under setting [1] was 18.4 µM [rising, single point].
For the compound `COc1cccc(NC(=S)N(CCN(C)C)C(C)c2ccco2)c1` (stereo not given), the cell number change stood at 8.88%.
Consider `Clc1ccc(CN2CCSCC2)cc1Cl`, for which the cell number change was -1.4%. Besides, the AC50 under setting [1] is 29.1 µM [falling, single point].
Turning to `CC(C)(C)NC(=O)NC(=O)COc1ccc(Br)cc1Br`, the cell number change is -21.8%.
The same measure, in the same setting: under `COc1cc(OC)cc(C(=O)Nc2cccc(N3CCCC3)c2)c1` stands -5.48%.
As for `O=C(CSc1nnc(-c2ccncc2)n1Cc1ccco1)Nc1nc(-c2ccccc2)cs1`, the cell number change was determined as 62.1%. Also, the AC50 under setting [2] was 29.1 µM [rising, single point]. Moreover, under setting [1], the AC50 was 0.58 µM [falling, partial curve, poor fit].
On to `Cc1cc(C)nc(NS(=O)(=O)c2ccc(N3C(=O)C4CCCCC4C3=O)cc2)n1` (stereo not given), for which the cell number change stood at 14.5%. Moreover, the AC50 under setting [1] is 0.631 µM [rising, partial curve, poor fit].
Turning to `Cc1ccsc1C(=O)NNC(=S)NC1CCCCC1`, the cell number change was -13.3%.
Consider `Cc1ccc(NC(=O)c2ccc(S(=O)(=O)NCc3ccco3)cc2)cc1`, for which the cell number change was determined as 7.39%. For the same compound, the half-maximal activity concentration (AC50) under setting [1] was 6.51 µM [rising, single point].
On to `FC(F)Oc1ccc(NC(=S)NC2CCCCCCC2)cc1`, for which the cell number change amounted to 4.7%. For the same compound, the AC50 under setting [1] is 0.116 µM [rising, full curve, poor fit].
For the compound `N=c1c(C(=O)NCC2CCCO2)cc2c(=O)n3ccccc3nc2n1Cc1ccccc1Cl` (stereo not given), the cell number change came out at 0.19%.
Consider `COc1cccc(-c2nc(CS(=O)CC(=O)NCCCOC(C)C)c(C)o2)c1` (stereo not given), for which the AC50 under setting [1] is 6.51 µM [rising, single point].
For `Cc1ccc(S(=O)(=O)NC(=NC2CCCCC2)c2ccccc2)cc1`, the cell number change stood at 14.5%.
For `COCCN(C(=O)COC(=O)c1cc(C)oc1C)c1c(N)n(Cc2ccccc2)c(=O)[nH]c1=O`, under setting [2], the AC50 is 6.51 µM [rising, single point].
As to `CCCn1c(N)c(C(=O)COC(=O)CNC(=O)c2ccccc2OCC)c(=O)[nH]c1=O`, the cell number change came to 37%. The AC50 under setting [2] is 29.1 µM [rising, single point]. Also, the AC50 under setting [1] was 23.1 µM [rising, partial curve, poor fit].
For the compound `COC(=O)c1cc(S(=O)(=O)NC2CCCCC2)cn1C`, under setting [1], the AC50 was 29.1 µM [rising, partial curve, poor fit].
As for `Cc1ccc2sc(NNC(=O)C3COc4ccccc4O3)nc2c1C` (stereo not given), the cell number change is -12.1%. The concentration at half-maximal activity (AC50) under setting [1] was 20.6 µM [falling, single point].
Consider `CC(/C=N/NC(=O)Cc1cccs1)=C\c1ccco1`, for which the cell number change was -34.4%. The AC50 under setting [2] was 18.4 µM [falling, single point]. Further, the AC50 under setting [1] is 23.1 µM [falling, single point].
As for `COc1ccc([N+](=O)[O-])cc1NC(=O)CSc1nc(C)cc(C)n1`, the cell number change stood at 9.26%. Besides, the AC50 under setting [1] was 0.58 µM [rising, single point].
Regarding `c1ccc(OCCSc2nnnn2C2CCCCC2)cc1`, the cell number change is 72.3%. Also, under setting [2], the AC50 is 6.51 µM [rising, partial curve]. In addition, the AC50 under setting [1] is 2.31 µM [rising, single point].
Consider `O=c1c2c3c(sc2n2cnnc2n1CCc1ccccc1)CCCC3`, for which the AC50 under setting [2] was 1.3 µM [rising, partial curve] and the half-maximal activity concentration (AC50) under setting [1] is 1.46 µM [rising, full curve].
Turning to `N=c1n(CCc2ccccc2)c2ccccc2n1Cc1ccccc1F`, the cell number change worked out at 6.3%.
In the case of `CCN(CC)Cc1c(C(=O)N/N=C/c2ccccn2)nnn1-c1nonc1N`, the cell number change was found to be 59%. Also, the AC50 under setting [2] was 29.1 µM [rising, single point]. Besides, the AC50 under setting [1] was 0.116 µM [falling, single point].
For `CCCc1cc(Nc2cccc(OCC)c2)n2ncnc2n1`, the cell number change is -15.4%. Further, the concentration at half-maximal activity (AC50) under setting [1] was 0.651 µM [falling, single point].
On to `CC(C)(C)NC(=O)COC(=O)c1cc(Cl)ccc1[N+](=O)[O-]`, for which the cell number change is -16.3%. The AC50 under setting [1] was 0.146 µM [falling, full curve].
As to `O=C(Nc1ccon1)c1csc2ccccc12`, the cell number change was determined as 11.9%. For the same compound, under setting [1], the AC50 is 2.06 µM [rising, partial curve, poor fit].
On to `CC(NC(=O)Nc1cccc(F)c1)c1ccc2c(c1)OCO2` (stereo not given), for which the cell number change was 30.6%. Also, under setting [2], the AC50 was 8.91 µM [rising, partial curve].
As to `COc1ccc(-c2c[n+]3c(n2-c2ccccc2)SCC3)cc1OC`, the cell number change is -34.2%. The AC50 under setting [2] was 0.00461 µM [falling, full curve, poor fit]. In addition, the AC50 under setting [1] is 0.92 µM [falling, full curve].
In the case of `O=C1CSc2ccc(S(=O)(=O)NCc3ccccc3)cc2N1`, the cell number change came out at 14.6%.
Consider `Cc1cc(NS(=O)(=O)c2ccc(NC(=O)CCCOc3ccc(Cl)cc3)cc2)no1`, for which the cell number change was -62.3%. Further, the AC50 under setting [2] is 20.6 µM [falling, single point]. Under setting [1], the AC50 was 0.116 µM [falling, single point].
